According to the supplement of paper PMC7661543:
The effect of the compound repeats well; differences between the knockouts mostly do not.

System: BT-20
Assay: relative cell number vs DMSO control (72 h) (% of DMSO); higher = less growth inhibition (more cells)
Description: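 QMAP-Seq: a pool of 5 breast cancer cell lines (ZR-75-1, SKBR3, HCC-38, MDA-MB-231, BT-20), each carrying 12 doxycycline-inducible Cas9 sgRNA perturbations (11 knockouts plus non-targeting sgNT), was treated with compounds for 72 h at four 10-fold doses (10 nM-10 uM or 1 nM-1 uM range). Barcodes were amplified and sequenced, and cell number was interpolated from 293T spike-in standard curves. The result is expressed as % of the median of DMSO wells. Two biological replicates.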

CN(Cc1cnc2nc(N)nc(N)c2n1)c1ccc(C(=O)N[C@@H](CCC(=O)O)C(=O)O)cc1 [Methotrexate]
Details	relative cell number
sgRNA knockout: sgATF3, 10 nM	113
sgRNA knockout: sgATF3, 100 nM	67.9
sgRNA knockout: sgATF3, 1000 nM	49
sgRNA knockout: sgATF3, 10000 nM	47.3
sgRNA knockout: sgATF4, 10 nM	97
sgRNA knockout: sgATF4, 100 nM	70.7
sgRNA knockout: sgATF4, 1000 nM	53.2
sgRNA knockout: sgATF4, 10000 nM	38.8
sgRNA knockout: sgATF6, 10 nM	101
sgRNA knockout: sgATF6, 100 nM	67.4
sgRNA knockout: sgATF6, 1000 nM	62.5
sgRNA knockout: sgATF6, 10000 nM	47
sgRNA knockout: sgATG7, 10 nM	115
sgRNA knockout: sgATG7, 100 nM	72.3
sgRNA knockout: sgATG7, 1000 nM	50.9
sgRNA knockout: sgATG7, 10000 nM	47.3
sgRNA knockout: sgERN1, 10 nM	102
sgRNA knockout: sgERN1, 100 nM	63.9
sgRNA knockout: sgERN1, 1000 nM	59.45
sgRNA knockout: sgERN1, 10000 nM	43.7
sgRNA knockout: sgHSF1, 10 nM	102
sgRNA knockout: sgHSF1, 100 nM	62.12
sgRNA knockout: sgHSF1, 1000 nM	47.2
sgRNA knockout: sgHSF1, 10000 nM	48.7
sgRNA knockout: sgHSF2, 10 nM	99.8
sgRNA knockout: sgHSF2, 100 nM	60
sgRNA knockout: sgHSF2, 1000 nM	52.8
sgRNA knockout: sgHSF2, 10000 nM	50.7
sgRNA knockout: sgKEAP1, 10 nM	102
sgRNA knockout: sgKEAP1, 100 nM	62.8
sgRNA knockout: sgKEAP1, 1000 nM	51.26
sgRNA knockout: sgKEAP1, 10000 nM	40.1
sgRNA knockout: sgNFE2L2, 10 nM	112
sgRNA knockout: sgNFE2L2, 100 nM	59.8
sgRNA knockout: sgNFE2L2, 1000 nM	58.3
sgRNA knockout: sgNFE2L2, 10000 nM	43.9
sgRNA knockout: sgSLC35F2, 10 nM	104
sgRNA knockout: sgSLC35F2, 100 nM	72.9
sgRNA knockout: sgSLC35F2, 1000 nM	50.2
sgRNA knockout: sgSLC35F2, 10000 nM	45.8
sgRNA knockout: sgXBP1, 10 nM	112
sgRNA knockout: sgXBP1, 100 nM	70.7
sgRNA knockout: sgXBP1, 1000 nM	56.4
sgRNA knockout: sgXBP1, 10000 nM	44.5

CCC(C)SSc1ncc[nH]1 (configuration not stated) [PX12]
Details	relative cell number
sgRNA knockout: sgATF3, 10 nM	101
sgRNA knockout: sgATF3, 100 nM	103
sgRNA knockout: sgATF3, 1000 nM	94.5
sgRNA knockout: sgATF3, 10000 nM	93.1
sgRNA knockout: sgATF4, 10 nM	116
sgRNA knockout: sgATF4, 100 nM	119
sgRNA knockout: sgATF4, 1000 nM	104
sgRNA knockout: sgATF4, 10000 nM	73
sgRNA knockout: sgATF6, 10 nM	108
sgRNA knockout: sgATF6, 100 nM	101
sgRNA knockout: sgATF6, 1000 nM	87
sgRNA knockout: sgATF6, 10000 nM	92.7
sgRNA knockout: sgATG7, 10 nM	102
sgRNA knockout: sgATG7, 100 nM	102
sgRNA knockout: sgATG7, 1000 nM	110.2
sgRNA knockout: sgATG7, 10000 nM	84.8
sgRNA knockout: sgERN1, 10 nM	105
sgRNA knockout: sgERN1, 100 nM	114
sgRNA knockout: sgERN1, 1000 nM	77.5
sgRNA knockout: sgERN1, 10000 nM	79.5
sgRNA knockout: sgHSF1, 10 nM	112
sgRNA knockout: sgHSF1, 100 nM	101
sgRNA knockout: sgHSF1, 1000 nM	103
sgRNA knockout: sgHSF1, 10000 nM	98.3
sgRNA knockout: sgHSF2, 10 nM	99.2
sgRNA knockout: sgHSF2, 100 nM	88.4
sgRNA knockout: sgHSF2, 1000 nM	97.81
sgRNA knockout: sgHSF2, 10000 nM	106
sgRNA knockout: sgKEAP1, 10 nM	101
sgRNA knockout: sgKEAP1, 100 nM	99.7
sgRNA knockout: sgKEAP1, 1000 nM	88.2
sgRNA knockout: sgKEAP1, 10000 nM	95.2
sgRNA knockout: sgNFE2L2, 10 nM	123
sgRNA knockout: sgNFE2L2, 100 nM	117
sgRNA knockout: sgNFE2L2, 1000 nM	114
sgRNA knockout: sgNFE2L2, 10000 nM	77.8
sgRNA knockout: sgSLC35F2, 10 nM	106
sgRNA knockout: sgSLC35F2, 100 nM	114
sgRNA knockout: sgSLC35F2, 1000 nM	106.7
sgRNA knockout: sgSLC35F2, 10000 nM	88.6
sgRNA knockout: sgXBP1, 10 nM	112
sgRNA knockout: sgXBP1, 100 nM	109
sgRNA knockout: sgXBP1, 1000 nM	92.6
sgRNA knockout: sgXBP1, 10000 nM	95.3

COc1cc(CCc2cc(NC(=O)c3ccc(N4CC(C)NC(C)C4)cc3)n[nH]2)cc(OC)c1 (configuration not stated) [AZD4547]
Details	relative cell number
sgRNA knockout: sgATF3, 10 nM	81.7
sgRNA knockout: sgATF3, 100 nM	85.8
sgRNA knockout: sgATF3, 1000 nM	96.6
sgRNA knockout: sgATF3, 10000 nM	60.5
sgRNA knockout: sgATF4, 10 nM	84.538
sgRNA knockout: sgATF4, 100 nM	95.1
sgRNA knockout: sgATF4, 1000 nM	106
sgRNA knockout: sgATF4, 10000 nM	46.2
sgRNA knockout: sgATF6, 10 nM	75.65
sgRNA knockout: sgATF6, 100 nM	99.1
sgRNA knockout: sgATF6, 1000 nM	98.8
sgRNA knockout: sgATF6, 10000 nM	60.9
sgRNA knockout: sgATG7, 10 nM	78.7
sgRNA knockout: sgATG7, 100 nM	91.8
sgRNA knockout: sgATG7, 1000 nM	97.1
sgRNA knockout: sgATG7, 10000 nM	53.9
sgRNA knockout: sgERN1, 10 nM	79.8
sgRNA knockout: sgERN1, 100 nM	79.8
sgRNA knockout: sgERN1, 1000 nM	92.3
sgRNA knockout: sgERN1, 10000 nM	52.8
sgRNA knockout: sgHSF1, 10 nM	80.4
sgRNA knockout: sgHSF1, 100 nM	83
sgRNA knockout: sgHSF1, 1000 nM	89.7
sgRNA knockout: sgHSF1, 10000 nM	55.8
sgRNA knockout: sgHSF2, 10 nM	90.4
sgRNA knockout: sgHSF2, 100 nM	80.8
sgRNA knockout: sgHSF2, 1000 nM	92.7
sgRNA knockout: sgHSF2, 10000 nM	74.6
sgRNA knockout: sgKEAP1, 10 nM	78.9
sgRNA knockout: sgKEAP1, 100 nM	85.9
sgRNA knockout: sgKEAP1, 1000 nM	90.1
sgRNA knockout: sgKEAP1, 10000 nM	60.4
sgRNA knockout: sgNFE2L2, 10 nM	77.6
sgRNA knockout: sgNFE2L2, 100 nM	85.8
sgRNA knockout: sgNFE2L2, 1000 nM	101
sgRNA knockout: sgNFE2L2, 10000 nM	47.1
sgRNA knockout: sgSLC35F2, 10 nM	88.4
sgRNA knockout: sgSLC35F2, 100 nM	92.4
sgRNA knockout: sgSLC35F2, 1000 nM	101
sgRNA knockout: sgSLC35F2, 10000 nM	55
sgRNA knockout: sgXBP1, 10 nM	84.7
sgRNA knockout: sgXBP1, 100 nM	76.5
sgRNA knockout: sgXBP1, 1000 nM	103
sgRNA knockout: sgXBP1, 10000 nM	71.6
